Laboratory results published in paper PMC8306025.
No constants are given. Whether binding was seen depends on the method and setting. In cells and extracts the contact can be indirect. Some binding calls cover weakened binding; strength is not graded here.

Amino acid sequences for entries named in this document (tags omitted).
UniProt Q04206: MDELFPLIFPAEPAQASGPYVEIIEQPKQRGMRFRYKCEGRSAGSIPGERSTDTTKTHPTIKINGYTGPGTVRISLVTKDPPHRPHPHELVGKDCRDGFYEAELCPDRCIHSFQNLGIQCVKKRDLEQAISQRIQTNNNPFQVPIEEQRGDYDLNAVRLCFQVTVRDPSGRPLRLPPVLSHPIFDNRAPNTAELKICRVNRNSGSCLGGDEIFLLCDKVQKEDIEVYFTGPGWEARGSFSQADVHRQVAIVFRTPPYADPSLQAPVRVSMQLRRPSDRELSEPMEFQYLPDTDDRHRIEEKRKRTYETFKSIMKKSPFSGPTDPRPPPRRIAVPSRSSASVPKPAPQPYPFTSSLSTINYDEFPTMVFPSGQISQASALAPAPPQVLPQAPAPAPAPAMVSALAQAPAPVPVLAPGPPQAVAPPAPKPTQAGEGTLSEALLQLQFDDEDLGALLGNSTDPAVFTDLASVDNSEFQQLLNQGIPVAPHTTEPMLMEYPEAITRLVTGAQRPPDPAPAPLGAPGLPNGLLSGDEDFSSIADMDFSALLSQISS
UniProt P48436: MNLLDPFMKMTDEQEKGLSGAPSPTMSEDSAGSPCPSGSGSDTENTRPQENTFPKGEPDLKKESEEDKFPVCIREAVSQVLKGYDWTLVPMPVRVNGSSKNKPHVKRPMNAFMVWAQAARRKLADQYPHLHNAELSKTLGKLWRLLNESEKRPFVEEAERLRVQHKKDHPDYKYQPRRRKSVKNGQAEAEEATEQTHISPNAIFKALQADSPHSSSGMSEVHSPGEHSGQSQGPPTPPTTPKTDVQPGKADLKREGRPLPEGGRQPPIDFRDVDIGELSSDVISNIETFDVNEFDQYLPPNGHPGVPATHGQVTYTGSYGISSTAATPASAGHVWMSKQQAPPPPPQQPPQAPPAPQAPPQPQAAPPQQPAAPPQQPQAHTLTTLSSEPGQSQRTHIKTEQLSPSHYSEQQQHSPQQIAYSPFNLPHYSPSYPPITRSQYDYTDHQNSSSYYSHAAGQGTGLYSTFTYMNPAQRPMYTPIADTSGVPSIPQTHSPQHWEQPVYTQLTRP

Key:
[1] = molecular target: p65-NF-kB (human (endogenous in primary human chondrocytes)) (UniProt Q04206); test: co-IP; cell extracts of primary human chondrocytes from alginate cultures (basal control or OA-EN co-culture with fibroblasts and T-lymphocytes) treated with curcumin or BMS-345541; IP with antibodies to p65-NF-kB, immunoblot with anti-Sox9; primary antibodies 4 °C 2 h, then S. aureus (SAC) 4 °C 1 h
[2] = molecular target: p65-NF-kB (human (endogenous in primary human chondrocytes)) (UniProt Q04206); test: co-IP; cell extracts of primary human chondrocytes from untreated control cultures (no curcumin, no BMS-345541); IP with antibodies to p65-NF-kB, immunoblot with anti-Sox9

Sox9 (SRY-Box Transcription Factor 9) (from UniProt P48436 1-509)
binding [1]: binds
binding [2]: binds weakly
